Four substances from US20230366033A1, “METHODS FOR TREATING CANCERS WITH INHIBITORS TARGETING THE ROLE OF GRB2 IN DNA REPAIR” (Board of Regents, The University of Texas System, priority 2020, published 2023) can be followed below.

Amino acid sequences for entries named in this document (tags omitted).
UniProt P27694: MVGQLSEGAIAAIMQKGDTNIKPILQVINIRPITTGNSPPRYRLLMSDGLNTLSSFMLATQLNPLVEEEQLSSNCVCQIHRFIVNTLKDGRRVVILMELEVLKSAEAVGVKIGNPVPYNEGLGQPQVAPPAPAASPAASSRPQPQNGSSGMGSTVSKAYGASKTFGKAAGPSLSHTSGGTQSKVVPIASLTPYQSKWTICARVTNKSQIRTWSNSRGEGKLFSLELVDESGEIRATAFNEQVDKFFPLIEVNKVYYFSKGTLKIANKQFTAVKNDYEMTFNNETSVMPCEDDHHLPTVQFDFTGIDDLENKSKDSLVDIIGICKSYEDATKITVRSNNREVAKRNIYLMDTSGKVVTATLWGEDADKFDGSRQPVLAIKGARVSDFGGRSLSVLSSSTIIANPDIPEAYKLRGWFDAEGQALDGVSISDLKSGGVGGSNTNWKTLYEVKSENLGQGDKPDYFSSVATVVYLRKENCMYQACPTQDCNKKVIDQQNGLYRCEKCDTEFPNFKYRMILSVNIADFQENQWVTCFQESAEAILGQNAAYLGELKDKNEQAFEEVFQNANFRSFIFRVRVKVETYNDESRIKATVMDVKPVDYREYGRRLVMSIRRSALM

The target in test [1] is T1, MRE11, endogenous, in extracts of human cell lines (HEK293T, HeLa, U2OS) (UniProt P49959).
T1 sequence (looked up): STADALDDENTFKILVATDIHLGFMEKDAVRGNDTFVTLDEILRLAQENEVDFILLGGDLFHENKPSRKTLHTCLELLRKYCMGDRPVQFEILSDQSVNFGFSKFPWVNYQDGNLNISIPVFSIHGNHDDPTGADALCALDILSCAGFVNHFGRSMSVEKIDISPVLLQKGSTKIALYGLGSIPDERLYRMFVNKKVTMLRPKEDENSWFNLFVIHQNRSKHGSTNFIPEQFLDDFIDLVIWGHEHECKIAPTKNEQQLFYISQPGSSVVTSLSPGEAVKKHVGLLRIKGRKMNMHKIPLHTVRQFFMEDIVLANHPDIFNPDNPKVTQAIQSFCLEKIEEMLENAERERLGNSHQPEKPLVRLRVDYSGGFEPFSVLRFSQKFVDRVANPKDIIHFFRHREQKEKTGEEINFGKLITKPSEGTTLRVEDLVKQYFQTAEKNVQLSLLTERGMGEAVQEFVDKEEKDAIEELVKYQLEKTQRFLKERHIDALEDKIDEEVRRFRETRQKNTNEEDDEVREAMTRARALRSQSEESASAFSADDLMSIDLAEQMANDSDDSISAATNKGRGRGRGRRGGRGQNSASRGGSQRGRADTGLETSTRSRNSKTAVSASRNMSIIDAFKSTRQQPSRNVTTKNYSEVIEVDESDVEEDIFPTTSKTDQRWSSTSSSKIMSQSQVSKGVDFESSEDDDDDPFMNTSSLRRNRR
The test is described as follows: Strep-Tactin precipitation from HEK293T cells, untreated or 5 Gy IR, western blot [panel E].

For test [2], the target named is RPA70, endogenous, in HEK293T cell extracts (UniProt P27694). The test is described as follows: GST pull-down from HEK293T cell extracts, western blot [panel B].
For test [3] the target is unchanged. As to the kind of experiment: GST-SH domain pulldown from HEK293T cell extracts, western blot.
In test [4] the target is T2, Human MRE11 core (residues 1-411), bacterially expressed and purified (human) (UniProt P49959).
T2 sequence (looked up): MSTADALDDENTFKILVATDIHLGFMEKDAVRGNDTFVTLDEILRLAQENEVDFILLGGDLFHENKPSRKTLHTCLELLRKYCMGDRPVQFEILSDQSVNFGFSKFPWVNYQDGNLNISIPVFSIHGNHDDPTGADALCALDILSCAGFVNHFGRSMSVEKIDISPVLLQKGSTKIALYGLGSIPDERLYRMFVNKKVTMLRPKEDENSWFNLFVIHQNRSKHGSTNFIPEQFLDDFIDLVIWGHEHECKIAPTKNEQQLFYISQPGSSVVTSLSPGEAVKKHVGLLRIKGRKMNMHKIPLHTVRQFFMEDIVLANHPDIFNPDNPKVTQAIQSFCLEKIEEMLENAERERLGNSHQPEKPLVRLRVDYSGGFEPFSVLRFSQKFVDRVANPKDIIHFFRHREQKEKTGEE
The test is described as follows: GST pulldown of bacterially purified MRE11.

Test [5] addresses T2, Human MRE11 core (residues 1-411), bacterially expressed and purified (human). As to the kind of experiment: GST pull-down of bacterially expressed, purified human MRE11, western blot [panel C].

These are yes or no findings as the source states them, for the method shown. For some of these results: In cells and extracts the contact can be indirect. Some entries that bind do so weakly or less than the wild type.

Consider “Strep-tagged GRB2 DF/AA mutant expressed in HEK293T cells (from UniProt P62993 1-217)”, for which the binding entry in test [1] is “binds”.
“GST-fused GRB2 N-terminal SH3 (nSH3) domain (from UniProt P62993 1-58)”: the binding entry in test [2] and in test [3] was “binds” throughout.
With “GST-fused GRB2 SH2 domain (from UniProt P62993 60-152)”, the binding result in test [4] and in test [5] was “binds” in each case.
In the case of “GST-fused GRB2 C-terminal SH3 (cSH3) domain (from UniProt P62993 156-217)”, the binding result in test [4] and in test [5] was “binds” in each case.
